We go through 1 compound from US12533330B2, “(2S)-2-aminopentanethioic s-acid for use as medicament and in therapy of amyotrophic lateral sclerosis” (MASSEY VENTURES LIMITED, priority 2020, dated 2026).

Test [1] concerns FUS[1-359]-tg mouse line (FUS-tg). Nature of the test: Onset of paralysis in FUS-tg mouse ALS model. The class given is in vivo. The conditions noted are these: FUS-tg male mice, six weeks via drinking water from age nine weeks, (I) and (IX) 50 mg/kg/day, Riluzole 8 mg/kg. The text has this: (§1) A transgenic FUS[1-359]-tg mouse line (FUS-tg) was used to test the efficacy of the substance of formula (I) in the therapy of amyotrophic lateral sclerosis according to the guidelines set for ALS preclinical studies. Ludolph A C et al. Guidelines for preclinical animal research in ALS/MND: A consensus meeting. Amyotroph Lateral Scler. 2010; 11:38-45. Mutations in DNA/RNA-binding factor (fused-in-sarcoma) FUS cause ALS in humans. The FUS-tg mouse model recapitulates core hallmarks of human ALS in the spinal cord, including neuroinflammation and neurodegeneration, ensuing muscle atrophy and paralysis. Shelkovnikova T A et al. Fused in sarcoma (FUS) protein lacking nuclear localization signal (NLS) and major RNA binding motifs triggers proteinopathy and severe motor phenotype in transgenic mice. J Biol Chem. 2013; 288:25266-25274. Lutz C. Mouse models of ALS: Past, present and future. Brain Res. 2018; 1693:1-10. de Munter J et al. Neuro-Cells therapy improves motor outcomes and suppresses inflammation during experimental syndrome of amyotrophic lateral sclerosis in mice. CNS Neurosci Ther. 2020; 26(5):504-517. […]
The onset of paralysis, a core ALS symptom, was recorded for each FUS-tg mouse. […]

Test [2] shares this test system. Nature of the test: Rotarod test in FUS-tg mouse ALS model. The class given is in vivo. The conditions noted are these: week 5, via drinking water, one-way ANOVA and Tukey's test.
From the text: as §1
The motor coordination, strength and balance was recorded for each FUS-tg mouse in the rotarod test. […]
(Falling from the rotarod earlier than controls is read as motor impairment.)

Take `Nc1nc2ccc(OC(F)(F)F)cc2s1` [Riluzole]: the “percentage of FUS-tg mice with signs of paralysis on day 95” value in test [1] is 38%. In addition, the “latency to fall in the rotarod test vs. vehicle-treated FUS-tg mice” value in test [2] is listed as “no significant difference”.
